{
  "source": "paper PMC3923297",
  "about": "“Structural basis for microtubule recognition by the human kinetochore Ska complex” (Nature Communications, 2014)",
  "note": "No constants are given. Whether binding was seen depends on the method and setting. Some binding calls cover weakened binding; strength is not graded here.",
  "data": [
    {"molecular_target": "Ska3 V58I (human) (UniProt Q8IX90)", "experiment": "co-purification (co-expression, glutathione affinity, size-exclusion chromatography); Ska1, Ska2 (His-GST) and Ska3 co-expressed in E. coli BL21 Gold; captured on glutathione sepharose, tags cleaved, Superose 6 in 20 mM Tris pH 8, 100 mM NaCl, 5 mM DTT; subunits seen on SDS-PAGE", "values": [
      {"substance": "Ska1 K135/203/206A (from UniProt Q96BD8 1-255)", "binding": "binds"},
      {"substance": "Ska1 K170/177A (from UniProt Q96BD8 1-255)", "binding": "binds"},
      {"substance": "Ska1 K183/184/203/206/217/223/226/227/R236/245A (from UniProt Q96BD8 1-255)", "binding": "binds"},
      {"substance": "Ska1 K183/184/203/206A (from UniProt Q96BD8 1-255)", "binding": "binds"},
      {"substance": "Ska1 K217/223/226/227A (from UniProt Q96BD8 1-255)", "binding": "binds"},
      {"substance": "Ska1 R155/236/245A (from UniProt Q96BD8 1-255)", "binding": "binds"},
      {"substance": "Ska1 R236/245A (from UniProt Q96BD8 1-255)", "binding": "binds"},
      {"substance": "Ska1, wild type, full length (from UniProt Q96BD8 1-255)", "binding": "binds"}
    ]}
  ]
}
